Results from PMC9700621, “Novel RAB27A Variant Associated with Late-Onset Hemophagocytic Lymphohistiocytosis Alters Effector Protein Binding” (Journal of Clinical Immunology, 2022).
Results are given in words; binding and its absence hold for the method and conditions named. In cells and extracts the contact can be indirect. Some binding calls cover weakened binding; strength is not graded here. Where a sequence is shown, tags or fusion partners need not be part of it.

Assays:
Assay in all cases: co-IP; HEK-293FT cells co-transfected with FLAG-RAB27A constructs and a MYC-tagged effector; lysis in 25 mM Tris-HCl pH 8.0, 150 mM NaCl, 1% TritonX-100, 5 mM EDTA, 10 mM DTT; goat anti-FLAG immunoprecipitation on protein G beads; blots with anti-Myc and anti-FLAG, quantified
FLAG-RAB27A p.R184Q = molecular target: T1, FLAG-RAB27A p.R184Q (human, UniProt P51159-1 1-221, p.R184Q)
T1 construct: RAB27A, human, with the patient's variant p.R184Q made by site-directed mutagenesis; variant found homozygous in the patient; also called patient-derived p.R184Q variant; RAB27A c.551G > A p.(R184Q); source: HEK-293FT, transfected, in lysate; not shown: 3xFLAG, N-terminal, kept
T1 sequence (looked up): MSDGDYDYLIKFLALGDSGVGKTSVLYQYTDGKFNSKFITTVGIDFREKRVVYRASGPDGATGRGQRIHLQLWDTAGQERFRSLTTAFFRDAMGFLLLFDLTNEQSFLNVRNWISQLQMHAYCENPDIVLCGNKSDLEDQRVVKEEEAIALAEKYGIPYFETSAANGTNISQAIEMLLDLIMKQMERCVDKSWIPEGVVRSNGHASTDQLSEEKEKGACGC

[1] = molecular target: FLAG-RAB27A p.Q78L (human) (UniProt P51159)
[2] = molecular target: FLAG-RAB27A p.T23N (human) (UniProt P51159)
[3] = molecular target: FLAG-RAB27A wild-type (human) (UniProt P51159)
[4] = molecular target: FLAG-RAB27A p.Q78L + p.R184Q (human) (UniProt P51159)

Measured: binding

B1: MYC-MELANOPHILIN (protein, UniProt Q9BV36 1-600)
chain: MGKKLDLSKLTDEEAQHVLEVVQRDFDLRRKEEERLEALKGKIKKESSKRELLSDTAHLNETHCARCLQPYQLLVNSKRQCLECGLFTCKSCGRVHPEEQGWICDPCHLARVVKIGSLEWYYEHVKARFKRFGSAKVIRSLHGRLQGGAGPELISEERSGDSDQTDEDGEPGSEAQAQAQPFGSKKKRLLSVHDFDFEGDSDDSTQPQGHSLHLSSVPEARDSPQSLTDESCSEKAAPHKAEGLEEADTGASGCHSHPEEQPTSISPSRHGALAELCPPGGSHRMALGTAAALGSNVIRNEQLPLQYLADVDTSDEESIRAHVMASHHSKRRGRASSESQIFELNKHISAVECLLTYLENTVVPPLAKGLGAGVRTEADVEEEALRRKLEELTSNVSDQETSSEEEEAKDEKAEPNRDKSVGPLPQADPEVGTAAHQTNRQEKSPQDPGDPVQYNRTTDEELSELEDRVAVTASEVQQAESEVSDIESRIAALRAAGLTVKPSGKPRRKSNLPIFLPRVAGKLGKRPEDPNADPSSEAKAMAVPYLLRRKFSNSLKSQGKDDDSFDRKSVYRGSLTQRNPNARKGMASHTFAKPVVAHQS
binds: FLAG-RAB27A p.R184Q | [1] | [2] | [3]

B2: MYC-MUNC13-4 (natural protein, UniProt Q70J99 1-1090, looked up)
chain: MATLLSHPQQRPPFLRQAIKIRRRRVRDLQDPPPQMAPEIQPPSHHFSPEQRALLYEDALYTVLHRLGHPEPNHVTEASELLRYLQEAFHVEPEEHQQTLQRVRELEKPIFCLKATVKQAKGILGKDVSGFSDPYCLLGIEQGVGVPGGSPGSRHRQKAVVRHTIPEEETHRTQVITQTLNPVWDETFILEFEDITNASFHLDMWDLDTVESVRQKLGELTDLHGLRRIFKEARKDKGQDDFLGNVVLRLQDLRCREDQWYPLEPRTETYPDRGQCHLQFQLIHKRRATSASRSQPSYTVHLHLLQQLVSHEVTQHEAGSTSWDGSLSPQAATVLFLHATQKDLSDFHQSMAQWLAYSRLYQSLEFPSSCLLHPITSIEYQWIQGRLKAEQQEELAASFSSLLTYGLSLIRRFRSVFPLSVSDSPARLQSLLRVLVQMCKMKAFGELCPNTAPLPQLVTEALQTGTTEWFHLKQQHHQPMVQGIPEAGKALLGLVQDVIGDLHQCQRTWDKIFHNTLKIHLFSMAFRELQWLVAKRVQDHTTVVGDVVSPEMGESLFQLYISLKELCQLRMSSSERDGVLALDNFHRWFQPAIPSWLQKTYNEALARVQRAVQMDELVPLGELTKHSTSAVDLSTCFAQISHTARQLDWPDPEEAFMITVKFVEDTCRLALVYCSLIKARARELSSGQKDQGQAANMLCVVVNDMEQLRLVIGKLPAQLAWEALEQRVGAVLEQGQLQNTLHAQLQSALAGLGHEIRTGVRTLAEQLEVGIAKHIQKLVGVRESVLPEDAILPLMKFLEVELCYMNTNLVQENFSSLLTLLWTHTLTVLVEAAASQRSSSLASNRLKIALQNLEICFHAEGCGLPPKALHTATFQALQRDLELQAASSRELIRKYFCSRIQQQAETTSEELGAVTVKASYRASEQKLRVELLSASSLLPLDSNGSSDPFVQLTLEPRHEFPELAARETQKHKKDLHPLFDETFEFLVPAEPCRKAGACLLLTVLDYDTLGADDLEGEAFLPLREVPGLSGSEEPGEVPQTRLPLTYPAPNGDPILQLLEGRKGDREAQVFVRLRRHRAKQASQHALRPAP
notes: MUNC13-4; 'MYC-tagged, full-length SLP2A, MUNC13-4'; source: HEK-293FT, transfected, in lysate; not shown: MYC, N-terminal, kept
binds: [4] | [2] | [3]
